# The other results are listed elsewhere or left out.
# Sequences of proteins named here, by UniProt entry; tags and fusion partners are left off. A change or cut given only in a name is not applied to a line headed by its entry.
# UniProt Q96DA6: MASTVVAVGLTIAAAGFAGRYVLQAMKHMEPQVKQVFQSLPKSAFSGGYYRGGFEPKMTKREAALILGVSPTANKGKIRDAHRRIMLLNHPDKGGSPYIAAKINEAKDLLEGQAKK
# UniProt Q13217: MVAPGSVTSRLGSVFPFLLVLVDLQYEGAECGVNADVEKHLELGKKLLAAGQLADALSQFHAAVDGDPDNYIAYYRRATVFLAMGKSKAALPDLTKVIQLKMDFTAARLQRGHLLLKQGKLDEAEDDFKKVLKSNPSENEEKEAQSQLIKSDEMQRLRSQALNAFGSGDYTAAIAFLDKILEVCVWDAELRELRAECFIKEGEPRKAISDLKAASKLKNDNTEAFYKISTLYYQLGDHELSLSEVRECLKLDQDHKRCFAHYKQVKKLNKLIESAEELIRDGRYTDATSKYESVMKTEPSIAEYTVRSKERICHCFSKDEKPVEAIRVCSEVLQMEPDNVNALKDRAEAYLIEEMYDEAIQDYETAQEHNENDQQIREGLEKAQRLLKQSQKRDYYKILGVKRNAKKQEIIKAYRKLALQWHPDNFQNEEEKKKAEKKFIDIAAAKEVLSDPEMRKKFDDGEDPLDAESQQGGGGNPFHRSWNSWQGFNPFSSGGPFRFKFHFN
# UniProt Q9BU89: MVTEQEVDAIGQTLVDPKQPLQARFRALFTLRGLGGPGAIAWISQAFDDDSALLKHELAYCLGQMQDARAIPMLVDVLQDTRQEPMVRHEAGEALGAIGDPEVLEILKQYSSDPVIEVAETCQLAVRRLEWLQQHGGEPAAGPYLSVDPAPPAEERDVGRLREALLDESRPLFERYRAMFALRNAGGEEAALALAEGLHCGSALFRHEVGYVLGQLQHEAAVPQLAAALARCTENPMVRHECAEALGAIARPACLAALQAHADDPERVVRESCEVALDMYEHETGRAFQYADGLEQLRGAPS
# UniProt Q15398: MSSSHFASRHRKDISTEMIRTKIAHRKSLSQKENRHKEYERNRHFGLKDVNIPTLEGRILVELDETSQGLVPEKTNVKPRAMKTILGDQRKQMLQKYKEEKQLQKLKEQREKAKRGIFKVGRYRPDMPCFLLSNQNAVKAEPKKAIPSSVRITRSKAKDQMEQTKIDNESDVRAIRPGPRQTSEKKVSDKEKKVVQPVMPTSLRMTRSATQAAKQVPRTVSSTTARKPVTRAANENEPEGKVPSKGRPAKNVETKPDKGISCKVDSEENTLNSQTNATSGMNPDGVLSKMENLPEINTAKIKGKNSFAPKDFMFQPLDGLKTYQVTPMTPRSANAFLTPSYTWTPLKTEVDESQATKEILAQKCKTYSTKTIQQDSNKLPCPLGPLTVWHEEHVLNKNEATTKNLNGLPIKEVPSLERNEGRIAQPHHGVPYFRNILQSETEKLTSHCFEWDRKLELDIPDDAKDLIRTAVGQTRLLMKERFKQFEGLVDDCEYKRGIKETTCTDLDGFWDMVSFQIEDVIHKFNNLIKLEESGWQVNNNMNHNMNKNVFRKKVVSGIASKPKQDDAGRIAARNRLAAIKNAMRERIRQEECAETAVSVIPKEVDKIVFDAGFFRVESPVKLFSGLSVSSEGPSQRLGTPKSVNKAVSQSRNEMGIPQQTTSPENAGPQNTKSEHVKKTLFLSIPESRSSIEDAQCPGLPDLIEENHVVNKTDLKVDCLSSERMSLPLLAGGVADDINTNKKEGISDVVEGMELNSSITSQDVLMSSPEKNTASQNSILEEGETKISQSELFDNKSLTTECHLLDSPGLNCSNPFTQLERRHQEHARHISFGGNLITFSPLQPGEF
# UniProt Q5JSL3: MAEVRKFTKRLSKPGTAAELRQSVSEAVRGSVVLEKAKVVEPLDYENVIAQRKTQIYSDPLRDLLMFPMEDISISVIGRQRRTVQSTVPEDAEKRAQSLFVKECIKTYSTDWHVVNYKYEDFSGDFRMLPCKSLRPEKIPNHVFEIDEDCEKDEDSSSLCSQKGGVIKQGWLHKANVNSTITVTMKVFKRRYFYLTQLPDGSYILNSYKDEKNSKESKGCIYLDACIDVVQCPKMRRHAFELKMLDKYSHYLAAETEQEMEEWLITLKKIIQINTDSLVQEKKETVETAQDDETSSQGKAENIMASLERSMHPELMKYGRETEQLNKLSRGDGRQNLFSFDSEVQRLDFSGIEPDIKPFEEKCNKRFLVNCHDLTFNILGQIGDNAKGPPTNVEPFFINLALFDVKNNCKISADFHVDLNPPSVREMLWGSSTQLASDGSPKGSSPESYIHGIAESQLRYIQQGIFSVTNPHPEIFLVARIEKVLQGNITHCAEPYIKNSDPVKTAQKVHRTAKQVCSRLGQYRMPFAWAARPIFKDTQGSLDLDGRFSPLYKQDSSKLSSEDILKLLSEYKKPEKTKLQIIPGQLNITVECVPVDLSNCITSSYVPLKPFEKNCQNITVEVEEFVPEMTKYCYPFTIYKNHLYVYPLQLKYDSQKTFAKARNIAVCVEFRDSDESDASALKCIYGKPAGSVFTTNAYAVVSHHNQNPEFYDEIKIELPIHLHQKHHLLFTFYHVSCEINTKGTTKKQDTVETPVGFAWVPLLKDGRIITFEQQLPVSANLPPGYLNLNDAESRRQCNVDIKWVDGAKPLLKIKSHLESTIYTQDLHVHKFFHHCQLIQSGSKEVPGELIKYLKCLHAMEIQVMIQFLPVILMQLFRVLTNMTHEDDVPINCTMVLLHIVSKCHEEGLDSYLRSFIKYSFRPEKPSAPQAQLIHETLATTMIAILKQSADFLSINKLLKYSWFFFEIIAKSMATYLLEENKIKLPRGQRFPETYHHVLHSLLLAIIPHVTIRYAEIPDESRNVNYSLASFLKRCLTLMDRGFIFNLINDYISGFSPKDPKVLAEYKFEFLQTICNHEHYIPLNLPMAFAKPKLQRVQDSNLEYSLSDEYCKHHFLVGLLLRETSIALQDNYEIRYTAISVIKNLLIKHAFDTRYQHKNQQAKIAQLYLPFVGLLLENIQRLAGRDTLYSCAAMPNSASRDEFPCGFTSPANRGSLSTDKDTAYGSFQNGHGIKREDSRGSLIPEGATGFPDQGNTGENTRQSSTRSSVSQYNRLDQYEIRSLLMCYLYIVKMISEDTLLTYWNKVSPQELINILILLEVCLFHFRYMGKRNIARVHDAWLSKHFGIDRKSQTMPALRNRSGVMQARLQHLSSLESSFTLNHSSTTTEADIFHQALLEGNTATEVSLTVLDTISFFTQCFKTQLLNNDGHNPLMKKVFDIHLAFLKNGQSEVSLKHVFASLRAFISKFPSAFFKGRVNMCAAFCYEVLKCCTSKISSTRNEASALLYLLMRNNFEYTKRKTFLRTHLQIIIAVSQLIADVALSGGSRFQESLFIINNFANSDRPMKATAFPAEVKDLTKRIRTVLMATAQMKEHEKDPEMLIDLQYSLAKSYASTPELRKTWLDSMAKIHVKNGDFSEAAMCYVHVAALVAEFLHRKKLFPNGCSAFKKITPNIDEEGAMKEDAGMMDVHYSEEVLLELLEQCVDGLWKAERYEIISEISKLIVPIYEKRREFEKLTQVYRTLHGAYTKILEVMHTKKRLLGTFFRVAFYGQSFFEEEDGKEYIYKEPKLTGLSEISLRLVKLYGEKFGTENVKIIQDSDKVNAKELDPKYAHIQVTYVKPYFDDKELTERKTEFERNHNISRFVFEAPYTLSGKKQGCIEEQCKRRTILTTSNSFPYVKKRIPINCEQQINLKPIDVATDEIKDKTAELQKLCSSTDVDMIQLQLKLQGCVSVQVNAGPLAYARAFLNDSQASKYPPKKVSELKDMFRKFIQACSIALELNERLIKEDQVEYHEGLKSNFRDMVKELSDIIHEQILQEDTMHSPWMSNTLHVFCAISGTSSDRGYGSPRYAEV
# UniProt Q8IXB1: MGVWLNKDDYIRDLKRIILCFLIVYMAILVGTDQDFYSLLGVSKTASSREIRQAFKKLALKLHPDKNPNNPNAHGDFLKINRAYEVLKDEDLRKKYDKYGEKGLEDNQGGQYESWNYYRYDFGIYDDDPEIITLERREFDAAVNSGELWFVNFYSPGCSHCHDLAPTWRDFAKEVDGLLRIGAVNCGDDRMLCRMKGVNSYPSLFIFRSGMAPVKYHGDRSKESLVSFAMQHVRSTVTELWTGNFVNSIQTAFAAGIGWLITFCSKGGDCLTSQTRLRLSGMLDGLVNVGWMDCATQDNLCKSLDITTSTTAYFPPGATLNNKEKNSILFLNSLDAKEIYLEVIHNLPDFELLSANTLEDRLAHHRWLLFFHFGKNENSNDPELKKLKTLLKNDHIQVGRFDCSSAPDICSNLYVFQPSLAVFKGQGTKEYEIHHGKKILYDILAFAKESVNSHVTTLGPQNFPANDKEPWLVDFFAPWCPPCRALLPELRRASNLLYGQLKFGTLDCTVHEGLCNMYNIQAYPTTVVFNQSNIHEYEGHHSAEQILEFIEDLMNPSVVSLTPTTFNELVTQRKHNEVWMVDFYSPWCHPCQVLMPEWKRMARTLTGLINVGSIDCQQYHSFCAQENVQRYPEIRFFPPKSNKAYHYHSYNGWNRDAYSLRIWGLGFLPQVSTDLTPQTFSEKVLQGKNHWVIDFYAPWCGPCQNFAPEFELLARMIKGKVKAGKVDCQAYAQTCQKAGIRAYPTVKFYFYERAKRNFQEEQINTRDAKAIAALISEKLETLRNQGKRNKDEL
# UniProt O00115: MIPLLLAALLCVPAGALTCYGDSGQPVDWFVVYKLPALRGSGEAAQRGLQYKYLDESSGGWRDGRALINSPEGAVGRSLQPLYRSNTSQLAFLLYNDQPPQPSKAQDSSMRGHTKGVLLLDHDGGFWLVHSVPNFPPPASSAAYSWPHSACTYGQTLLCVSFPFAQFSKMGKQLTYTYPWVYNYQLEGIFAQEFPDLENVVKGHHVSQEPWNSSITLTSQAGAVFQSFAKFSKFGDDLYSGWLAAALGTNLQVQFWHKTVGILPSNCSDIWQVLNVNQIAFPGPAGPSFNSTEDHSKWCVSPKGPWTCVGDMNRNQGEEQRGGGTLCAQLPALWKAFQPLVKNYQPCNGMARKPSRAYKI
# UniProt Q5F1R6: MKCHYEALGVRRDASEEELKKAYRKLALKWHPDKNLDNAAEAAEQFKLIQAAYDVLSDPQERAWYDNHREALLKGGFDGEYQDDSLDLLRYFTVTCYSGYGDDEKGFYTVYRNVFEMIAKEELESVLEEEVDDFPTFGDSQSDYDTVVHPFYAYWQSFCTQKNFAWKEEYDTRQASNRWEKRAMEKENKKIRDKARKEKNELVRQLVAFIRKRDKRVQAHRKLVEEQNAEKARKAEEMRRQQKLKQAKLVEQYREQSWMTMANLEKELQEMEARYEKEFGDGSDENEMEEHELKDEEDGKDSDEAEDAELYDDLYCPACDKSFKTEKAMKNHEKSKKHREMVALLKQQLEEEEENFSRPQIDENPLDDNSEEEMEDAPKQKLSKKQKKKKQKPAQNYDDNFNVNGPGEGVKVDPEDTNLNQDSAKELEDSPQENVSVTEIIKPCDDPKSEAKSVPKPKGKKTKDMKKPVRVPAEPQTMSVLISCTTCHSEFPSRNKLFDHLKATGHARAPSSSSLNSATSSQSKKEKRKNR
# UniProt Q16854: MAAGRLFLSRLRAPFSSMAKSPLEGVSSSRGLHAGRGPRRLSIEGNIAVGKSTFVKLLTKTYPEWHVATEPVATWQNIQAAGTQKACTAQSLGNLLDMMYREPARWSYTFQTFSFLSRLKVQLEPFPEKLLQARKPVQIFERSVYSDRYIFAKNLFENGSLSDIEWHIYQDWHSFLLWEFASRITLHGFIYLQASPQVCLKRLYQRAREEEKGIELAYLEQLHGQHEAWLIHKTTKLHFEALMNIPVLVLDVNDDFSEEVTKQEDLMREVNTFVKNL
# UniProt Q02127: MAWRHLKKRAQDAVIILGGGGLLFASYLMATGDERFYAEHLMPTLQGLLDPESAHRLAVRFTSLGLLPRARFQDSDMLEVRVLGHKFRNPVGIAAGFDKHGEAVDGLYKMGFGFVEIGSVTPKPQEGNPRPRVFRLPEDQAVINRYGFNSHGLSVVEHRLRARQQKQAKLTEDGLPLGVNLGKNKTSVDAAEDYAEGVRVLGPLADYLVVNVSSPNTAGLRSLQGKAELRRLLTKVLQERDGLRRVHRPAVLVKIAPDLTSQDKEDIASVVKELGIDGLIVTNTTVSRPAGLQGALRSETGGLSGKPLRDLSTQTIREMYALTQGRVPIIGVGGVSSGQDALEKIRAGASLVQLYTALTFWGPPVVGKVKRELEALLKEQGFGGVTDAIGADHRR
# UniProt O75911: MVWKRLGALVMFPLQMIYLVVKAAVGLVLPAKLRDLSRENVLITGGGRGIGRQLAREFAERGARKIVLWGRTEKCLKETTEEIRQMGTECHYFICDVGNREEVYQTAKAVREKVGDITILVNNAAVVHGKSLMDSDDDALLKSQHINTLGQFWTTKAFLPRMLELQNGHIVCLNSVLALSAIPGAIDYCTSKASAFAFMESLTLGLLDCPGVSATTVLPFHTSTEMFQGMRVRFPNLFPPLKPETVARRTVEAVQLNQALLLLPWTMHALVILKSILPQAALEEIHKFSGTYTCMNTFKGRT
# Legend:
# Assay in all cases: log2 fold change, soluble protein after heating vs DMSO (PISA); higher = thermal stabilisation; K562 lysate, 10 uM; active = over 0.2 and 3.5 SD of the protein, either way, in both replicates (recomputed)
# alvocidib = compound: CN1CC[C@H](c2c(O)cc(O)c3c(=O)cc(-c4ccccc4Cl)oc23)[C@H](O)C1 [alvocidib]
# How it was run: (§1)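 Following dounce homogenisation of K562 pellets in PBS pH 7.4 with 1 mM MgCl2, crude extract at 1 mg/mL protein was incubated for 30 min with 10 μM compound. Aliquots were then heated for 3 min over 48°C-58°C and pooled, NP-40 was added to 0.5% at 4°C, and soluble protein was recovered as the supernatant at 21,000xg for 90 min. Channel-sum-equalised TMTpro 16plex LC-MS/MS quantified this protein. Each value, from duplicates, is a log-two fold change in thermal stability relative to solvent controls.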
# Tubastatin A = compound: CN1CCc2c(c3ccccc3n2Cc2ccc(C(=O)NO)cc2)C1 [Tubastatin A]
# How it was run: as §1
# [1] = compound: CNC(=O)C1=CC=CC=C1NC2=NC(=NC=C2Cl)NC3=C(C=C(C=C3)N4CCOCC4)OC
# How it was run: as §1
# defactinib = compound: CNC(=O)c1ccc(Nc2ncc(C(F)(F)F)c(NCc3nccnc3N(C)S(C)(=O)=O)n2)cc1 [defactinib]
# How it was run: as §1
# [2] = compound: CNc1nc(-c2ccc3c(N)n[nH]c3c2)cc(N2C[C@@H](C(=O)NC3CCCCC3)CC[C@H]2C)n1
# How it was run: as §1
# encorafenib = compound: COC(=O)N[C@@H](C)CNc1nccc(-c2cn(C(C)C)nc2-c2cc(Cl)cc(NS(C)(=O)=O)c2F)n1 [encorafenib]
# How it was run: as §1
# [3] = compound: COC(=O)[C@H](CCSC)NC(=O)C1=C(C=C(C=C1)NC[C@H](CS)N)C2=CC=CC=C2
# How it was run: as §1
# alisertib = compound: COc1cc(Nc2ncc3c(n2)-c2ccc(Cl)cc2C(c2c(F)cccc2OC)=NC3)ccc1C(=O)O [alisertib]
# How it was run: as §1
# [4] = compound: COc1cc2nc(-c3cc(F)ccc3O)nc(N[C@@H]3CNC[C@H]3C(C)(C)O)c2cc1OC
# How it was run: as §1
# gefitinib = compound: COc1cc2ncnc(Nc3ccc(F)c(Cl)c3)c2cc1OCCCN1CCOCC1 [gefitinib]
# How it was run: as §1
Target,log2 fold change (alvocidib),log2 fold change (Tubastatin A),log2 fold change [1],log2 fold change (defactinib),log2 fold change [2],log2 fold change (encorafenib),log2 fold change [3],log2 fold change (alisertib),log2 fold change [4],log2 fold change (gefitinib)
DNAJC19 (UniProt Q96DA6),inactive: -0.007,inactive: 0.04,inactive: -0.023,inactive: 0.017,inactive: 0.04,inactive: -0.035,inactive: 0.016,inactive: 0.033,inactive: -0.111,inactive: -0.065
DNAJC3 (UniProt Q13217),inactive: 0.004,inactive: 0.073,inactive: 0.005,inactive: 0.021,inactive: -0.029,inactive: 0.044,inactive: 0.011,inactive: 0,inactive: 0.005,inactive: 0.026
DHX15 (UniProt O43143),inactive: 0.004,inactive: 0.029,inactive: -0.015,inactive: -0.022,inactive: 0.004,inactive: 0.001,inactive: -0.016,inactive: 0.017,inactive: 0.005,inactive: 0.033
DIS3L (UniProt Q8TF46),inactive: -0.011,inactive: -0.111,inactive: 0.104,inactive: -0.019,inactive: 0.078,inactive: 0.06,inactive: 0.109,inactive: 0.014,inactive: -0.062,inactive: -0.079
DHX35 (UniProt Q9H5Z1),inactive: 0.085,inactive: -0.136,inactive: 0.026,inactive: 0.087,inactive: -0.01,inactive: 0.058,inactive: 0.172,inactive: 0.014,inactive: -0.021,inactive: -0.094
DOHH (UniProt Q9BU89),inactive: 0.041,inactive: 0.002,inactive: 0.037,inactive: 0.077,inactive: 0.082,inactive: 0.041,inactive: 0.051,inactive: 0.002,inactive: -0.051,inactive: -0.089
DLGAP5 (UniProt Q15398),inactive: -0.007,inactive: -0.021,inactive: 0.01,inactive: 0.004,inactive: -0.004,inactive: 0.024,inactive: 0,inactive: -0.016,inactive: -0.02,inactive: -0.001
DNAJC9 (UniProt Q8WXX5),inactive: 0.008,inactive: -0.003,inactive: 0.012,inactive: -0.014,inactive: 0.026,inactive: -0.007,inactive: -0.074,inactive: 0.023,inactive: -0.01,inactive: -0.011
DNAJB1 (UniProt P25685),inactive: 0.018,inactive: -0.075,inactive: 0.021,inactive: 0.058,inactive: -0.037,inactive: 0.069,inactive: -0.103,inactive: 0.022,inactive: -0.046,inactive: 0.006
DOCK11 (UniProt Q5JSL3),inactive: -0.02,inactive: -0.044,inactive: 0.011,inactive: 0.013,inactive: -0.024,inactive: 0.02,inactive: -0.035,inactive: 0.017,inactive: 0.007,inactive: -0.009
DNAJC10 (UniProt Q8IXB1),inactive: -0.034,inactive: 0.005,inactive: 0.015,inactive: 0.035,inactive: 0.033,inactive: 0.012,inactive: 0.184,inactive: -0.009,inactive: -0.009,inactive: -0.005
DOCK10 (UniProt Q96BY6),inactive: -0.354,inactive: -0.028,inactive: 0.208,inactive: 0.133,inactive: 0.046,inactive: 0.067,inactive: -0.002,inactive: 0.05,inactive: -0.042,inactive: 0.084
DNAJA1 (UniProt P31689),inactive: -0.007,inactive: 0.007,inactive: -0.007,inactive: -0.006,inactive: 0,inactive: 0.024,inactive: -0.115,inactive: 0.017,inactive: 0.004,inactive: 0.009
DKC1 (UniProt O60832),inactive: -0.026,inactive: 0.029,inactive: 0.005,inactive: -0.065,inactive: 0.017,inactive: 0.009,inactive: 0.027,inactive: 0.009,inactive: -0.006,inactive: 0.008
DNASE2 (UniProt O00115),inactive: -0.03,inactive: -0.003,inactive: 0.022,inactive: 0.001,inactive: 0.035,inactive: -0.012,inactive: 0,inactive: 0.001,inactive: -0.01,inactive: 0.015
DLG1 isoform 2 (UniProt Q12959),inactive: 0.039,inactive: 0.035,inactive: -0.013,inactive: -0.026,inactive: -0.002,inactive: 0.008,inactive: 0.034,inactive: 0.045,inactive: 0.006,inactive: -0.015
DMTN (UniProt Q08495),inactive: 0.011,inactive: 0.041,inactive: -0.012,inactive: -0.014,inactive: 0.023,inactive: 0.013,inactive: -0.069,inactive: -0.015,inactive: 0.011,inactive: 0.017
DNMT1 isoform 2 (UniProt P26358),inactive: 0.011,inactive: 0.002,inactive: -0.005,inactive: 0.006,inactive: -0.036,inactive: -0.002,inactive: -0.01,inactive: 0.002,inactive: -0.009,inactive: -0.008
DNAJC21 isoform 3 (UniProt Q5F1R6),inactive: 0.052,inactive: -0.02,inactive: 0.018,inactive: 0.008,inactive: -0.027,inactive: 0.062,inactive: -0.067,inactive: 0.028,inactive: 0,inactive: -0.064
DNAJB12 (UniProt Q9NXW2),inactive: 0.026,inactive: 0.021,inactive: -0.052,inactive: 0.03,inactive: 0.038,inactive: 0.03,inactive: 0.004,inactive: -0.031,inactive: -0.046,inactive: -0.007
DMXL1 (UniProt Q9Y485),inactive: 0.01,inactive: -0.014,inactive: 0.019,inactive: 0.024,inactive: 0.012,inactive: 0.055,inactive: -0.015,inactive: -0.031,inactive: 0.009,inactive: 0.038
DHCR7 (UniProt Q9UBM7),inactive: -0.008,inactive: -0.038,inactive: -0.008,inactive: 0.016,inactive: -0.031,inactive: 0.019,inactive: 0.037,inactive: 0.029,inactive: -0.008,inactive: -0.035
DHX57 (UniProt Q6P158),inactive: 0.005,inactive: -0.039,inactive: -0.021,inactive: 0,inactive: -0.004,inactive: -0.013,inactive: 0.052,inactive: -0.016,inactive: -0.006,inactive: 0.062
DGUOK (UniProt Q16854),inactive: 0.019,inactive: 0.065,inactive: -0.005,inactive: -0.018,inactive: 0.023,inactive: -0.003,inactive: -0.027,inactive: -0.02,inactive: 0.011,inactive: 0.011
DNAAF5 (UniProt Q86Y56),inactive: 0.024,inactive: -0.155,inactive: -0.011,inactive: -0.009,inactive: -0.011,inactive: 0.073,inactive: 0.101,inactive: 0.038,inactive: 0.012,inactive: -0.018
DFFB (UniProt O76075),inactive: -0.042,inactive: -0.007,inactive: -0.022,inactive: -0.033,inactive: -0.022,inactive: -0.012,inactive: 0.015,inactive: -0.006,inactive: 0.011,active: 0.231
DNAH8 (UniProt Q96JB1),inactive: -0.092,inactive: 0.178,inactive: 0.153,inactive: -0.095,inactive: 0.214,inactive: -0.013,inactive: -0.036,inactive: 0.049,inactive: 0.18,inactive: 0.115
DHODH (UniProt Q02127),inactive: -0.023,inactive: 0.033,inactive: -0.002,inactive: 0.022,inactive: 0.026,inactive: -0.022,inactive: -0.039,inactive: -0.016,inactive: 0.011,inactive: -0.027
DHRS3 (UniProt O75911),inactive: -0.013,inactive: 0.105,inactive: 0.043,inactive: -0.006,inactive: 0.085,inactive: -0.044,inactive: 0.151,inactive: -0.006,inactive: -0.011,inactive: 0.071

# Retrieved one by one from the entries so far (2):
Target,log2 fold change (alvocidib),log2 fold change (Tubastatin A),log2 fold change [1],log2 fold change (defactinib),log2 fold change [2],log2 fold change (encorafenib),log2 fold change [3],log2 fold change (alisertib),log2 fold change [4],log2 fold change (gefitinib)
DNASE2 (UniProt O00115),inactive: -0.03,inactive: -0.003,inactive: 0.022,inactive: 0.001,inactive: 0.035,inactive: -0.012,inactive: 0,inactive: 0.001,inactive: -0.01,inactive: 0.015
DIS3L (UniProt Q8TF46),inactive: -0.011,inactive: -0.111,inactive: 0.104,inactive: -0.019,inactive: 0.078,inactive: 0.06,inactive: 0.109,inactive: 0.014,inactive: -0.062,inactive: -0.079

# From the supplement of paper PMC10849652
